Source: PubChem BioAssay AID504842 (National Center for Advancing Translational Sciences (NCATS), 2011)
In all, about 330,000 compounds went through this assay and about 100 (0.03%) were called active. Inconclusive results, whose numbers are uncertain, are shown with a selection of clear calls. Calls come from the whole dose curve; as a rule, active = well fitted inhibition curve with a large enough effect; inconclusive = small, poorly fitted or top-dose-only effect; inactive = flat fitted curve, though single readings scatter. Potencies of inconclusive entries are doubtful fits and often do not repeat.

System: Chaperonin Mm-Cpn (Methanococcus maripaludis)
Assay: Inhibitors of TCP-1 ring complex (TRiC) of Methanococcus maripaludis (MmCpn): qHTS; note: nearly all actives have a fitted effect of over 80% in size;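 for Potency: enzyme at 25 nM with ATP substrate at 10 µM during the reaction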
Settings: purified Mm-Cpn ATPase, ADP Transcreener TR-FRET; activity, negative = inhibition: at the top concentration
Summary of the method: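 TR-FRET (320 nm excitation; 590 and 665 nm emission) reports ADP made from 10 uM ATP by 25 nM enzyme; compounds were preincubated 10 min, reaction run 30 min, both at 37°C.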
% is set by controls: 0 for no effect and ±100 for the full control effect; potency is the fitted concentration of half-maximal effect.

Potency, inconclusive:
COc1cccc(-c2sc3ccc(OC)cc3c2-c2ccc(OCCN3CCCCC3)cc2)c1 158 µM [inhibitor, partial curve]
Cc1ccc(-c2cc(-c3ccccc3)c3c(N)c(S(C)(=O)=O)sc3n2)cc1 178 µM [inhibitor, partial curve, poor fit]
COc1ccc(C2NC(=S)NC(O)(C(F)(F)F)C2C(=O)c2cccs2)cc1 (stereo unspecified) 251 µM [inhibitor, partial curve, poor fit]
Cn1cccc1C(=O)NCCc1ccccc1 20 µM [inhibitor, single point]
CSc1cc(/C=N/O)c(SC)s1 501 µM [inhibitor, partial curve, poor fit]
COc1cccc(/C=N/Nc2nc(C)cc(=O)[nH]2)c1OC 79.4 µM [inhibitor, single point]
FC(F)(F)c1cccc(NC(=S)Nc2cccc(NC(=S)Nc3cccc(C(F)(F)F)c3)n2)c1 100 µM [inhibitor, single point]
Cc1cc(=O)oc2cc(OCC(=O)OCC(=O)Nc3ccc4ccccc4c3)ccc12 79.4 µM [inhibitor, single point]
O=C(Cc1ccccn1)c1ccc(O)cc1O 11.2 µM [inhibitor, single point]
COc1ccc(-c2nnn(CC(=O)N(Cc3cccs3)C(C)C(=O)NCCC(C)C)n2)cc1OC (stereo unspecified) 100 µM [inhibitor, single point]
Cc1cc(C(=O)COC(=O)/C=C/c2ccco2)c(C)n1C 79.4 µM [inhibitor, partial curve, poor fit]
CC(C)N(C(=O)[C@H]1C[C@H](CC(=O)NCCc2ccccn2)C(=O)N2CCc3c([nH]c4cc(-c5ccco5)ccc34)[C@]12C)C(C)C 20 µM [inhibitor, single point]
Cc1ccc(-n2c(SCC(=O)NCc3ccco3)nc3c(sc4ccccc43)c2=O)cc1 100 µM [inhibitor, single point]
O=C(CSc1nnnn1-c1ccccc1)N1CCc2ccccc2C1 70.8 µM [inhibitor, single point]
C=CCOn1c(-n2nc(C)cc2C)nc2ccccc2c1=O 70.8 µM [inhibitor, single point]
O=C(NNC(=O)c1ccc(NC(=O)c2ccccc2)cc1)c1ccc(F)cc1 79.4 µM [inhibitor, single point]
CC(C)(C)NC(=O)C(c1ccc(O)cc1)N(C(=O)CCC(=O)Nc1nccs1)c1cccc(F)c1 (stereo unspecified) 100 µM [inhibitor, single point]
Cc1ccc(Cn2c(NCCc3ccccc3)nc3c2c(=O)n(C)c(=O)n3C)cc1 17.8 µM [inhibitor, single point]
Cc1nn(-c2ccc(C(=O)OC(C)C)cc2)c(C)c1[N+](=O)[O-] 22.4 µM [inhibitor, single point]
CCOC(=O)[C@H]1[C@H]2COc3ccccc3[C@@H]2N2C(=O)[C@@H](CO)NC(=O)[C@@]12C 79.4 µM [inhibitor, single point]
Cc1n[nH]c(C)c1CCN(C)Cc1cn(C)nc1-c1ccccc1F 12.6 µM [inhibitor, single point]
CSc1cc(-c2ccc(Cl)cc2)c(C(=O)NC(C)C)s1 100 µM [inhibitor, single point]
COc1ccc(NC(=O)CN(C)C(=O)CSc2nc3ccccc3s2)cc1 100 µM [inhibitor, single point]
Cc1cccc(NC(=O)CCSc2ccccn2)c1 11.2 µM [inhibitor, single point]
Cc1cn(S(=O)(=O)c2ccc(Br)c3ccccc23)cn1 316 µM [inhibitor, partial curve, poor fit]

Of the compounds above, these have an aryl thioether with sulfur outside any ring.
Potency, inconclusive:
CSc1cc(/C=N/O)c(SC)s1 501 µM [inhibitor, partial curve, poor fit]
Cc1ccc(-n2c(SCC(=O)NCc3ccco3)nc3c(sc4ccccc43)c2=O)cc1 100 µM [inhibitor, single point]
O=C(CSc1nnnn1-c1ccccc1)N1CCc2ccccc2C1 70.8 µM [inhibitor, single point]
CSc1cc(-c2ccc(Cl)cc2)c(C(=O)NC(C)C)s1 100 µM [inhibitor, single point]
COc1ccc(NC(=O)CN(C)C(=O)CSc2nc3ccccc3s2)cc1 100 µM [inhibitor, single point]
Cc1cccc(NC(=O)CCSc2ccccn2)c1 11.2 µM [inhibitor, single point]

Next part:

Potency, active:
CN(C)c1ccc(NC(=O)C2C3C=CC(C3)C2C(=O)O)cc1 (stereo unspecified) 25.1 µM
COc1cc(F)cc(-c2ccc3c(c2)c(-c2cccs2)c(-c2cc(OC)cc(OC)c2)n3C)c1 22.4 µM
COc1ccccc1-c1sc2ccccc2c1-c1ccc(OCCN2CCOCC2)cc1 39.8 µM

activity, negative = inhibition, inactive:
N#CC(C#N)=NNc1ccc(S(=O)(=O)N2CCCCC2)cc1 1.21%
O=C(N=Nc1c(O)[nH]c2ccccc12)c1cccc(S(=O)(=O)Nc2ccccc2Cl)c1 -0.587%
O=C(C1=C(c2ccccc2)C(=O)c2ccccc2C1=O)c1ccccc1 1.56%
CC(C)(C)OC(=O)N1CCC(NC(=O)c2nc[nH]c2C(=O)NC2CCN(C(=O)OC(C)(C)C)CC2)CC1 -3.15%
CCOc1cc(-c2sc(Nc3ccccc3)n[n+]2C)ccc1OC -1.79%
CC1c2[nH]c3ccccc3c2C[C@H]2C(=O)N(CCCN(C)C)CC(=O)N12 (stereo partly specified) -1.92%
Cc1ccccc1CN(C)C(=O)COC(=O)c1ccc2[nH]c(C)c(C)c2c1 -4.72%
COc1cc(C(=O)N2CCN(c3ccc(C)cc3C)CC2)cc(OC)c1OC -0.163%
OC(COc1ccccc1)CN(Cc1ccccc1)CC(O)COc1ccccc1 (stereo unspecified) 0.173%
COc1ccc(NC(=O)CNC(=O)c2nn(-c3ccc(OC)cc3OC)c(=O)c3ccccc23)c(OC)c1 0.581%
Cc1ccc(C2(C)NC(=O)N(CC(=O)NNC(=O)c3ccccc3F)C2=O)cc1 (stereo unspecified) 1.76%
O=c1[nH]c2ccccc2c(=O)n1Cc1ccccc1 0.697%
OCCNc1nc(Nc2ccccc2)nc2ccccc12 -1.24%
Nc1ccc(C(=O)N2CCN(S(=O)(=O)c3ccc(Br)cc3)CC2)cc1[N+](=O)[O-] 3%
CSCC(=O)N1CCC(CCC(=O)NC2CC2)CC1 -0.268%
COc1ccc2oc(=N)c(C(=O)NCc3ccccc3)cc2c1 0.231%
COc1ccccc1NS(=O)(=O)c1ccc(-c2cc(C)no2)s1 -0.154%
CC1=CC2=NC(=O)CC(C)(C(=O)N(CC(=O)NC3CCCC3)c3cc(C)cc(C)c3)N2C=C1 (stereo unspecified) -7.49%

Reprinted at random: two entries already listed.
activity, negative = inhibition, inactive:
CC(C)(C)OC(=O)N1CCC(NC(=O)c2nc[nH]c2C(=O)NC2CCN(C(=O)OC(C)(C)C)CC2)CC1 -3.15%
CC1=CC2=NC(=O)CC(C)(C(=O)N(CC(=O)NC3CCCC3)c3cc(C)cc(C)c3)N2C=C1 (stereo unspecified) -7.49%
